This note sets out measurements from the odorant receptor screen of Mainland et al. (2015).

“And” between values parts separate entries of the source, which are not always exact repeats. Equal values may be shown once. The list shows a part of the results. Single wells; the ratio to wells without odorant was worked out here, and repeats agree poorly.

What all share (assay): odorant receptor activation (CRE luciferase / Renilla) (fold of no-odor wells); higher = more activation
Common to all, as to conditions: 100 µM

Experiment [1] deals with OR2F2 A98V clone 1087.
In experiment [2] the test system is OR2G2 clone 1385.
In experiment [3] the test system is OR2G3 clone 1328.
The test system of experiment [4] is OR2G3 clone 1382.
The test system of experiment [5] is OR2H1 clone 1393.
Experiment [6] relates to OR2H2 L30F/A48V clone 1061.
The subject of experiment [7] is OR2H2 clone 1066.
Experiment [8] deals with OR2J2 T111A clone 1073.
The test system of experiment [9] is OR2G2 P24A/V120L/R236G clone 1349.
Experiment [10] concerns OR2G6 clone 1487.

On to `CCCCCCC=O` [heptaldehyde], for which the odorant receptor activation in experiment [1] was 1.12 and 1.09; in experiment [2], 1.12 and 0.977; in experiment [3] it was 0.432 and 0.761 and 0.751; in experiment [4] it was 0.969 and 0.909; in experiment [5], 1.29 and 0.883; in experiment [6], 1.44 and 0.834. In addition, the odorant receptor activation in experiment [7] is 1.08 and 0.92; in [8], 1.11 and 1.36.
Regarding `C=CC(C)(O)CCC=C(C)C` (configuration not stated) [linalool], the odorant receptor activation in experiment [1] turned out to be 1.03; in experiment [9] it was 0.759; in experiment [2], 0.903; in experiment [3], 0.871; in experiment [4] it was 0.963; in experiment [10], 0.749. In addition, the odorant receptor activation in experiment [5] came to 1.11; in [6] it was 1.11; in [7] it was 1.3; in experiment [8] it was 1.03.
On to `C=CCSCC=C` [diallyl sulfide], for which the odorant receptor activation in experiment [1] was determined as 1.04; in experiment [9] it was 0.974; in experiment [2], 1.08; in [3], 1.04; in [4], 1.12; in experiment [10] it was 1.01. The odorant receptor activation worked out at 1.23 in [5], 1 in experiment [6], 0.969 in experiment [7] and 0.884 in experiment [8].
With `CCCCCCCC=CC=O` [2-decenal], the odorant receptor activation in experiment [1] is 38.1; in experiment [9] it was 0.968; in experiment [2], 2.7; in experiment [3] it was 0.984; in experiment [4] it was 2.03; in [10], 1.25. Also, the odorant receptor activation was 2.16 in experiment [5], 4.07 in experiment [6], 6.18 in experiment [7] and 2.46 in experiment [8].
Consider `CCCCCC(=O)O` [caproic acid], for which the odorant receptor activation stood at 0.907 in experiment [1]; 0.948 in experiment [9]; 0.15 in experiment [2]; 0.702 in [3]; 0.226 in [4]; 0.819 in experiment [10]. In addition, the odorant receptor activation came to 0.132 in experiment [5], 0.995 in experiment [6], 1.16 in experiment [7] and 1.03 in experiment [8].
In the case of `CCCCO` [1-butanol], the odorant receptor activation is 18.2 in [1]; 1.25 in [9]; 1.65 in [2]; 0.987 in [3]; 2.17 in experiment [4]; 0.881 in experiment [10]. For the same molecule, the odorant receptor activation in experiment [5] turned out to be 1.11; in [6], 2.92; in [7], 3.42; in experiment [8], 1.99.
Take `CC(=O)OC1CC2CCC1(C)C2(C)C` (configuration not stated) [isobornyl acetate]: the odorant receptor activation was 0.743 in experiment [1]; 1.49 and 1.02 in experiment [9]; 0.923 in [2]; 1.14 and 0.955 in [3]; 0.872 in [4]; 0.758 and 0.756 in experiment [10]. The odorant receptor activation in [5] was found to be 0.84; in experiment [6] it was 0.492; in experiment [7], 0.97; in [8] it was 1.03.
As for `CC1CCC(C(C)C)C(O)C1` (single isomer, unassigned; (+)) [(+)-menthol], the odorant receptor activation came out at 18.7 in experiment [1]; 1 in experiment [9]; 1.71 in [2]; 0.753 in experiment [3]; 1.21 in experiment [4]; 0.91 in experiment [10]. Further, the odorant receptor activation in experiment [5] turned out to be 1.34; in experiment [6], 3.15; in experiment [7] it was 4.53; in [8], 1.79.
In the case of `CC1=CCC(C(C)(C)O)CC1` (configuration not stated) [terpineol], the odorant receptor activation was found to be 0.82 in [1]; 1.01 in [9]; 1.22 in experiment [2]; 1.09 in [3]; 1.24 in experiment [4]; 0.822 in experiment [10]. Besides, the odorant receptor activation in experiment [5] came to 1.07; in experiment [6], 1.16; in experiment [7] it was 0.986; in experiment [8] it was 1.29.
Take `CC(=O)OCC=C(C)CCC=C(C)C` [geranyl acetate]: the odorant receptor activation in [1] was 1.03; in [9] it was 2.22 and 1.17; in experiment [2], 1.27; in experiment [3], 0.606 and 0.769; in experiment [4] it was 1.13; in [10], 0.999 and 1.28. The odorant receptor activation in experiment [5] came to 1.09; in experiment [6], 1.17; in experiment [7], 2.45; in [8], 1.42.
As to `CC(C)CC(=O)O` [isovaleric acid], the odorant receptor activation in experiment [1] amounted to 1.17; in [9], 1.04; in experiment [2] it was 0.769; in experiment [3] it was 0.96; in [4] it was 0.905; in experiment [10], 0.775. The odorant receptor activation in experiment [5] was 0.739; in [6] it was 0.866; in experiment [7], 1.15; in experiment [8], 0.998.
With `CC(=O)C(C)=O` [diacetyl], the odorant receptor activation was 1.25 in experiment [1]; 1.14 in [9]; 1.23 in experiment [2]; 1.04 in experiment [3]; 1.5 in experiment [4]; 1.25 in experiment [10]. Also, the odorant receptor activation in experiment [5] was 1.37; in experiment [6], 1.11; in experiment [7], 1.1; in experiment [8], 1.05.
As for `C=C(C)C1CC=C(C)C(=O)C1` (configuration not stated) [r-carvone], the odorant receptor activation was found to be 0.698 in [1]; 0.813 in experiment [9]; 1.23 in [2]; 0.852 in [3]; 1.59 in experiment [4]; 0.982 in experiment [10]. Also, the odorant receptor activation in experiment [5] stood at 1.01; in experiment [6], 0.893; in experiment [7], 1.04; in experiment [8], 1.01.
In the case of `CC=Cc1ccc(O)c(OC)c1` [isoeugenol], the odorant receptor activation in experiment [1] is 0.683; in experiment [9] it was 2.71 and 1.07; in experiment [2], 2.02; in experiment [3], 1.28 and 0.91; in experiment [4], 1.23; in experiment [10], 0.982 and 2.01. Moreover, the odorant receptor activation amounted to 1.37 in [5], 0.601 in [6], 1.45 in experiment [7] and 5.69 in [8].
In the case of `CCCCCCCCCCC=O` [undecanal], the odorant receptor activation worked out at 0.747 in [1]; 1.04 in experiment [9]; 1.22 in experiment [2]; 0.957 in [3]; 1.38 in experiment [4]; 0.969 in experiment [10]. For the same molecule, the odorant receptor activation in experiment [5] worked out at 0.984; in [6], 1.06; in [7], 0.982; in experiment [8], 1.12.
Turning to `CCCCCCCCC=O` [nonyl aldehyde], the odorant receptor activation amounted to 0.967 in experiment [1]; 1.08 in experiment [9]; 0.849 in experiment [2]; 1.01 in [3]; 0.891 in [4]; 0.893 in experiment [10]. Further, the odorant receptor activation in experiment [5] came to 0.917; in [6], 1.06; in experiment [7], 1.01; in experiment [8] it was 1.03.
`C=C(C)C1CC=CCC1` (configuration not stated) [r-limonene]: the odorant receptor activation in experiment [1] is 0.798 and 1.24; in experiment [9], 0.844 and 0.675 and 0.686; in [2] it was 1.34 and 0.807; in experiment [4], 1.4 and 0.915; in [10], 1.09 and 0.964 and 0.909; in [5], 0.987 and 0.929. Moreover, the odorant receptor activation in experiment [6] was 1.28 and 1.51; in experiment [7], 1.71 and 1.18; in experiment [8], 1.25 and 1.58.
Turning to `CC(C)(C)c1ccc(CCC=O)cc1` [bourgeonal], the odorant receptor activation in experiment [1] worked out at 0.754; in experiment [9], 0.657; in experiment [2], 0.127; in experiment [3] it was 0.724; in experiment [4], 0.183; in experiment [10], 1.05. The odorant receptor activation in experiment [5] came to 0.131; in [6], 0.833; in experiment [7], 1.16; in [8], 0.779.
For the molecule `CCCCCCCOC(C)=O` [heptyl acetate], the odorant receptor activation was 1.12 in [1]; 2.08 and 0.968 in [9]; 1.14 in experiment [2]; 0.833 and 0.962 in [3]; 0.92 in experiment [4]; 0.962 and 1.05 in experiment [10]. Also, the odorant receptor activation in experiment [5] was determined as 1.17; in experiment [6] it was 0.723; in experiment [7], 0.902; in [8], 1.12.
Regarding `COC(=O)c1ccccc1` [methyl benzoate], the odorant receptor activation is 0.987 in experiment [1]; 0.619 and 0.749 in experiment [9]; 0.798 in [2]; 0.761 in experiment [3]; 0.835 in experiment [4]; 1.11 and 0.946 in experiment [10]. Moreover, the odorant receptor activation in experiment [5] was determined as 0.896; in experiment [6] it was 1.53; in experiment [7], 1.22; in experiment [8] it was 2.
In the case of `COc1cc(C=O)ccc1O` [vanillin], the odorant receptor activation came out at 0.75 in experiment [1]; 1.06 in experiment [9]; 1.09 in experiment [2]; 0.991 in [3]; 1.15 in experiment [4]; 0.949 in experiment [10]. In addition, the odorant receptor activation in experiment [5] is 0.899; in experiment [6] it was 0.911; in experiment [7], 0.968; in [8], 2.14.
Consider `CC1COCc2cc3c(cc21)C(C)(C)C(C)C3(C)C` (configuration not stated) [galaxolide], for which the odorant receptor activation in [1] is 3.73; in [9], 4.47 and 1.69; in [2], 4.67; in experiment [3], 1.44 and 1.35; in experiment [4] it was 4.02; in [10] it was 1.66 and 3.93. The odorant receptor activation in experiment [5] is 4.66; in experiment [6], 1.92; in [7], 2.19; in [8], 1.91.
Consider `CC12C=CCC1C1CCC3=CC(=O)CCC3(C)C1CC2` (configuration not stated) [androstadienone], for which the odorant receptor activation in [1] was 5.62; in [9], 1.23 and 1.09; in experiment [2] it was 0.952; in [3], 0.967 and 0.761; in experiment [4] it was 0.837; in [10] it was 1.07 and 1.2. Also, the odorant receptor activation was found to be 0.986 in experiment [5], 1.63 in experiment [6], 3.24 in experiment [7] and 2.01 in [8].
With `CC1CCC(C(C)C)C(O)C1` (single isomer, unassigned; (-)) [(-)-menthol], the odorant receptor activation in experiment [1] came out at 18.4; in experiment [9] it was 0.865; in experiment [2] it was 1; in [3], 0.729; in experiment [4], 0.832; in [10] it was 2.5. In addition, the odorant receptor activation in experiment [5] was 0.476; in experiment [6] it was 2.53; in experiment [7], 4.91; in experiment [8] it was 2.09.
With `O=CCc1ccccc1` [phenyl acetaldehyde], the odorant receptor activation was 0.776 in experiment [1]; 1.28 in experiment [9]; 1.88 in [2]; 1.37 in [3]; 1.94 in [4]; 1.44 in [10]. In addition, the odorant receptor activation in [5] is 1.42; in experiment [6] it was 1.18; in experiment [7] it was 1.59; in [8], 1.35.
On to `COc1cc(C)ccc1O` [2-methoxy-4-methylphenol], for which the odorant receptor activation in experiment [1] worked out at 12.2; in experiment [9] it was 0.861; in [2], 1.53; in experiment [3], 0.893; in [4], 1.08; in experiment [10], 0.778. The odorant receptor activation was determined as 0.996 in experiment [5], 1.27 in [6], 2.37 in experiment [7] and 2.42 in experiment [8].
Take `CC(=O)c1ccccc1` [acetophenone]: the odorant receptor activation in [1] was 0.508; in [9], 0.764 and 0.613; in experiment [2], 1.08; in experiment [3], 1.05; in experiment [4] it was 0.768; in experiment [10] it was 1.12 and 0.715. In addition, the odorant receptor activation in [5] was 1.09; in experiment [6], 0.668; in experiment [7], 1.21; in experiment [8] it was 3.56.
Regarding `CCCCCCCCCC=O` [decyl aldehyde], the odorant receptor activation in experiment [1] came to 1.28; in experiment [9] it was 1.44; in [2], 1.47; in experiment [3], 1.21; in [4], 1.11; in experiment [10] it was 0.917. The odorant receptor activation is 1.42 in experiment [5], 1.05 in experiment [6], 1.06 in [7] and 1.1 in experiment [8].
